For one molecule, cell count results are on record in PubChem BioAssay.

The test is described as follows: inhibitors of TNFa-induced NFkB p65 translocation, primary screen, imaging, HUVEC, MLSMR starter and 10KST1 sets (AID 438).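 Further: compound added about 3h40 before a 20 min TNFalpha stimulation.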 The conditions noted are these: HUVEC TNFa-induced p65 nuclear translocation, measured here: nuclei count (cytotoxicity indicator), at 2.08 µM.

This is one part of the list. Further columns of the screen follow, without active or inactive calls. Compounds called inactive in the main read-out are mostly missing here.

In turn, `O=C(COc1ccc2ccccc2c1)N1CCN(C2CCN(Cc3ccccc3)CC2)CC1` came in with a cell count of 511.
